Laboratory results taken from publication PMC6737913.

Protein sequences, listed by entry. Tags and fused reporters are not part of them.
UniProt Q9QYF3: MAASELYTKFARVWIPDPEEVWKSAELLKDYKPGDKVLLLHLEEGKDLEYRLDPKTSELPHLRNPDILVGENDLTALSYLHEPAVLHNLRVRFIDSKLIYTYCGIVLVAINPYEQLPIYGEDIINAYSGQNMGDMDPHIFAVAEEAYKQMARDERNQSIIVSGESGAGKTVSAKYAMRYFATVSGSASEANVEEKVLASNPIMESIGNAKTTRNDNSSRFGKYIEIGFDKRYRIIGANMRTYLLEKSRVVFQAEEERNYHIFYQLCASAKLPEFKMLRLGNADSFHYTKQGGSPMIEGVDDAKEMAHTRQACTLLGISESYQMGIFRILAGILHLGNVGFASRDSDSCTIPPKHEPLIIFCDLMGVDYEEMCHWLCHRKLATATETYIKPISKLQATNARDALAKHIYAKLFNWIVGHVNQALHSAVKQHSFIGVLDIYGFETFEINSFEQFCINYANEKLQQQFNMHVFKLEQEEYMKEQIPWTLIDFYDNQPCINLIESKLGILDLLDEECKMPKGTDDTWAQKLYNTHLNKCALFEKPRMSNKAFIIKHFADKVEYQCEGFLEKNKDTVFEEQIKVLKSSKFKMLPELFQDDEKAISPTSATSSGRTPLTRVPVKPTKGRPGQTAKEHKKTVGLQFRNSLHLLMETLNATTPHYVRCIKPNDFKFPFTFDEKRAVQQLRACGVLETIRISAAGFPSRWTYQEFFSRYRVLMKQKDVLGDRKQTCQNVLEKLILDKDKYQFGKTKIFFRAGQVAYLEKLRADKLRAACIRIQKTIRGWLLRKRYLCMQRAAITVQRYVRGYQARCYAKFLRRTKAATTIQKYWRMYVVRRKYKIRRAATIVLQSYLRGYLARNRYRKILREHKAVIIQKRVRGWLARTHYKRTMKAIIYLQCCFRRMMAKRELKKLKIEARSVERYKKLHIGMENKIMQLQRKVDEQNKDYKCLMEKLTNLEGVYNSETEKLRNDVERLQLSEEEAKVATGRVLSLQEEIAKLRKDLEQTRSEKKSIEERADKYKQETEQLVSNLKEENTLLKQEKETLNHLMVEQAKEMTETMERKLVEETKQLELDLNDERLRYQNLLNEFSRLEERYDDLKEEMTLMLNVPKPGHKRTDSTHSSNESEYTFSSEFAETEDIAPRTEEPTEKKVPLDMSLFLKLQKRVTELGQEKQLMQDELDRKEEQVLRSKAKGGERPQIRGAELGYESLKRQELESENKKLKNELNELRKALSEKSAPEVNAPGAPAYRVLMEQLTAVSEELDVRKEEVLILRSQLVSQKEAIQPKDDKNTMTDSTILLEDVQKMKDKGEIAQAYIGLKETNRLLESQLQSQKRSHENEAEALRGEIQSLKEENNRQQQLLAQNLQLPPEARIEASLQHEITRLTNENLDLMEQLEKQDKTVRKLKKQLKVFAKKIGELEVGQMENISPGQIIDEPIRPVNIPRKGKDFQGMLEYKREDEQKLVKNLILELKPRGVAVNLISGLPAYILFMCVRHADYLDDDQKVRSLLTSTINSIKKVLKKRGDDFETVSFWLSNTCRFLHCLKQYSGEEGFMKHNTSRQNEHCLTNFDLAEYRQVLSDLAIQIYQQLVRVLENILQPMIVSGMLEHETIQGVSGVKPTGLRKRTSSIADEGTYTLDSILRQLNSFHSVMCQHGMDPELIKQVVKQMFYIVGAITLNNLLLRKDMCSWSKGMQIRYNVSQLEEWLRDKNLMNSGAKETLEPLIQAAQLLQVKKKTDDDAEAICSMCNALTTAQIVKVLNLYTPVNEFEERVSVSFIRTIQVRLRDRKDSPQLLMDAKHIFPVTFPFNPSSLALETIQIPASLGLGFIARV
UniProt Q63357: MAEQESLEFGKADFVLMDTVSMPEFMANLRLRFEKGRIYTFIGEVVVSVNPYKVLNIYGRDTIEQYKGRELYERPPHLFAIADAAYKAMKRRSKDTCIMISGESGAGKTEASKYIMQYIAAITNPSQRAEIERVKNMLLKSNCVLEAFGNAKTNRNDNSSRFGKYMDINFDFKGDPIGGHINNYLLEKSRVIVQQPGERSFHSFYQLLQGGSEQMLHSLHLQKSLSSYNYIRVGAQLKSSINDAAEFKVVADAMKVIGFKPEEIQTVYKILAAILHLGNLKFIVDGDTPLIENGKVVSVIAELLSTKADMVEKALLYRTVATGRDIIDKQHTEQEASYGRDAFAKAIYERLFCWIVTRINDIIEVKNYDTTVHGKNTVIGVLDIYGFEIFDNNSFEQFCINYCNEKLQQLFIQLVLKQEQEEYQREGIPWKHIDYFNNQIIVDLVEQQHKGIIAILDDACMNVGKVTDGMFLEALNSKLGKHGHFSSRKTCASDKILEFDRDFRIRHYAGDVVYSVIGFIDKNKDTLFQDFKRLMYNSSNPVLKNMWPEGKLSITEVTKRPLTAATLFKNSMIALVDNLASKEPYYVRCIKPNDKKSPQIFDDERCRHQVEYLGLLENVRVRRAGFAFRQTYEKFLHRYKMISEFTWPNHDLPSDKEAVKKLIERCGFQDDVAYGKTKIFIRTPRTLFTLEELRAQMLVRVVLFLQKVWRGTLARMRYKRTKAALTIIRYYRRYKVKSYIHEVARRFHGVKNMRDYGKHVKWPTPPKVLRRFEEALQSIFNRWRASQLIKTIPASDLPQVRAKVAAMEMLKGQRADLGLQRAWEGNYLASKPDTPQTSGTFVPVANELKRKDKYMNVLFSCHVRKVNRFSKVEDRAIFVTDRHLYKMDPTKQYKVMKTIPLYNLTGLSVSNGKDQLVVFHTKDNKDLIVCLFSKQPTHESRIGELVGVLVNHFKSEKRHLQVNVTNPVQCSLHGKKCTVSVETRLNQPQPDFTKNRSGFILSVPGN
UniProt Q9QXQ0: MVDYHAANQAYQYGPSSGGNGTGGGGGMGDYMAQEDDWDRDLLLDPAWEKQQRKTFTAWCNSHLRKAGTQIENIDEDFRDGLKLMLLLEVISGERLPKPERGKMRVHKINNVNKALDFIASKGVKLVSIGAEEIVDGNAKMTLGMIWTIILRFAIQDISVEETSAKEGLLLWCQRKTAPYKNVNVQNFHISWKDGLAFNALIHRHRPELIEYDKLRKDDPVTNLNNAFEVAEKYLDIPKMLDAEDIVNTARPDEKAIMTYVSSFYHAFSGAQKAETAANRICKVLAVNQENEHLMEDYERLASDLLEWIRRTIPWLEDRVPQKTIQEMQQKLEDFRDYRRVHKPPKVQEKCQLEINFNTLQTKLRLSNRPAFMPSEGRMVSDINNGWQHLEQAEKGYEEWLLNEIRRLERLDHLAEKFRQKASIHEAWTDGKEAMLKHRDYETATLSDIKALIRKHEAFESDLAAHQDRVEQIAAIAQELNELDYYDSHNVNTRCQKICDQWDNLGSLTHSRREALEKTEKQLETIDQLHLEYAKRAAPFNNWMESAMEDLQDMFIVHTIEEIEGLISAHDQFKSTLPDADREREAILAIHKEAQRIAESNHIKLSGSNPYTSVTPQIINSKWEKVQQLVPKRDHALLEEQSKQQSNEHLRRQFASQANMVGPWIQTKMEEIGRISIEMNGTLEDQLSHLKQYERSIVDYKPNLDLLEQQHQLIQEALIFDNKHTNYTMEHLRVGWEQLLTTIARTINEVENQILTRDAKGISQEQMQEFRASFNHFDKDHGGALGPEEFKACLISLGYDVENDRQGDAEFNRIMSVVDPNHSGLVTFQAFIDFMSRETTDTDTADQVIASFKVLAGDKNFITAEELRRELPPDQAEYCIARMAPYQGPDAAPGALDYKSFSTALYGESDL
UniProt P08413: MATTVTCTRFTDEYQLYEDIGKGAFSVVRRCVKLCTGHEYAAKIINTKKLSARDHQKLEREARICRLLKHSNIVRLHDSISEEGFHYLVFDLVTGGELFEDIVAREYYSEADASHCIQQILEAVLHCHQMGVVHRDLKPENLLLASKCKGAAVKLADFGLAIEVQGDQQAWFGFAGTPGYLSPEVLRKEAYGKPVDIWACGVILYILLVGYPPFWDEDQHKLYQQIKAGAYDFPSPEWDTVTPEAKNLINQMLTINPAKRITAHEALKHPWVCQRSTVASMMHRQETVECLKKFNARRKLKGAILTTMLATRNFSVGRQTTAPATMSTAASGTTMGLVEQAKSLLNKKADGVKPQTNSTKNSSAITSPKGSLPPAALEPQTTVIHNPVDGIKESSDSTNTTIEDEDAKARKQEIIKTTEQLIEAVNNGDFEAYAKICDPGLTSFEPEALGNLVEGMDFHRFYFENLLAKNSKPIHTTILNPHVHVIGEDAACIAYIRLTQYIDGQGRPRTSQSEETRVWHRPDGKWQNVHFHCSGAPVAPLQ
UniProt P70569: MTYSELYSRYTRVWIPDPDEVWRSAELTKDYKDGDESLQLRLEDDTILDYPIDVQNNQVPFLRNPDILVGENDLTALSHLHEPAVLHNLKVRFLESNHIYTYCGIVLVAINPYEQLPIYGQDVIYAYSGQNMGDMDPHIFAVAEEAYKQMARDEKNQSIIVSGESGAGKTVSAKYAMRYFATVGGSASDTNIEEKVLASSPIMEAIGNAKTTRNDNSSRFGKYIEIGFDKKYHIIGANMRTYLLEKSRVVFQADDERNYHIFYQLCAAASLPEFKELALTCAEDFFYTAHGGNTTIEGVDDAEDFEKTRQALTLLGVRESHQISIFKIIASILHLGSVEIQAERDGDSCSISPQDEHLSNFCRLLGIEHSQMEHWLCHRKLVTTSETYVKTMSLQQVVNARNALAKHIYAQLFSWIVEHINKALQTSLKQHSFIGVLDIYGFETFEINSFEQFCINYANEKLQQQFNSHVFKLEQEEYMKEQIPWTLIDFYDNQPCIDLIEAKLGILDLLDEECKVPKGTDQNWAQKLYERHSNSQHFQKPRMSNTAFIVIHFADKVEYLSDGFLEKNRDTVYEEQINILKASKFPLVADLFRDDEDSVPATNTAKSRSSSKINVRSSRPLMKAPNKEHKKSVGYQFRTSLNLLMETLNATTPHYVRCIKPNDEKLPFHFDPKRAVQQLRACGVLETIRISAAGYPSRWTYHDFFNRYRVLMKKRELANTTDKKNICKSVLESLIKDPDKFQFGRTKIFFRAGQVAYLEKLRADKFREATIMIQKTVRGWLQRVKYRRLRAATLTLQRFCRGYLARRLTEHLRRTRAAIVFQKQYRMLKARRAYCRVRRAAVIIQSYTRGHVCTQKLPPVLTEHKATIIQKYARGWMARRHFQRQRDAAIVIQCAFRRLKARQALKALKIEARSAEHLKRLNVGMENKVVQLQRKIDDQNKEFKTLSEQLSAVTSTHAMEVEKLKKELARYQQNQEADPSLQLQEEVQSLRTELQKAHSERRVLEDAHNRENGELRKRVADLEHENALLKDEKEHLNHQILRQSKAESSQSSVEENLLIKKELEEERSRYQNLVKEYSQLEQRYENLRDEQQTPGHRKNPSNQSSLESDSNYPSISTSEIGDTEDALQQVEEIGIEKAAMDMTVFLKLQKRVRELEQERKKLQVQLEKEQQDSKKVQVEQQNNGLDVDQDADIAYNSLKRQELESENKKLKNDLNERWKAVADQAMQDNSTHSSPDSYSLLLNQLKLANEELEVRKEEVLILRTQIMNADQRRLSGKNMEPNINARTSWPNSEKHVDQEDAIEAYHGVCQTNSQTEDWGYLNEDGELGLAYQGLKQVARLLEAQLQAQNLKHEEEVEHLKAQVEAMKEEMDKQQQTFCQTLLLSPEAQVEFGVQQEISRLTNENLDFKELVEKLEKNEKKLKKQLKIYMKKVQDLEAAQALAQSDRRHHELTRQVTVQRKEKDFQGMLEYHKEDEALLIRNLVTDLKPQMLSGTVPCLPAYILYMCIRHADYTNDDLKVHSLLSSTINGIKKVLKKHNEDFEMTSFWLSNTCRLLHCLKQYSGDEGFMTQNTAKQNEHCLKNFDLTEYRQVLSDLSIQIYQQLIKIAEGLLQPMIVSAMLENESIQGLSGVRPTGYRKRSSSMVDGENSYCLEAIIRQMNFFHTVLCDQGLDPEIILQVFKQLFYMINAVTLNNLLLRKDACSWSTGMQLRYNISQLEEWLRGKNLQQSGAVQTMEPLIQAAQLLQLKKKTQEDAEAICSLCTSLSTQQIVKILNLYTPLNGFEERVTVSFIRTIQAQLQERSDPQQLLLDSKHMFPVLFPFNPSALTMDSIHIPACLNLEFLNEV

B1: tropomodulin Tmod2 (endogenous, rat brain) (protein, UniProt P70566 1-351)
chain: MALPFQKGLEKYKNIDEDELLGKLSEEELKQLENVLDDLDPESATLPAGFRQKDQTQKAATGPFDREHLLMYLEKEALEQKDREDFVPFTGEKKGRVFIPKEKPVETRKEEKVTLDPELEEALASASDTELYDLAAVLGVHNLLNNPKFDEETTNGQGRKGPVRNVVKGEKAKPVFEEPPNPTNVEASLQQMKANDPSLQEVNLNNIKNIPIPTLKEFAKALETNTHVRKFSLAATRSNDPVALAFAEMLKVNKTLKSLNVESNFITGAGILALVEALRENDTLTEIKIDNQRQQLGTAVEMEIAQMLEENSRILKFGYQFTKQGPRTRVAAAITKNNDLVRKKRVEGDRR
B2: coronin Coro2b (endogenous, rat brain) (protein, UniProt F1LMV9 1-480)
chain: MTVTKMSWRPQYRSSKFRNVYGKVANREHCFDGIPITKNVHDNHFCAVNARFLAIVTESAGGGSFLVIPLEQTGRIEPNYPKVCGHQGNVLDIKWNPFIDNIIASCSEDTSVRIWEIPEGGLKRNMTEALLELHGHSRRVGLVEWHPTTNNILFSAGYDYKVLIWNLDIGEPVKMIDCHTDVILCMSFNTDGSLLTTTCKDKKLRVIEPRSGRVLQEANCKNHRVNRVVFLGNMKRLLTTGVSRWNTRQIALWDQEDLSMPMIEEEIDGLSGLLFPFYDADTHMLYLAGKGDGNIRYYEISTEKPYLSYLMEFRSPAPQKGLGVMPKHGLDVSACEVFRFYKLVTLKGLIEPISMIVPRRSDSYQEDIYPMTPGTEPALTPDEWLGGVNRDPVLMSLKEGYKKSSKVVFKAPIREKKSVVVNGIDLLENVPPRTENELLRMFFRQQDEIRRLKEELAQKDIRLRQLQLELKNLRNNPKNC

Molecular target: T1, bio-GFP–synaptopodin (biotinylated GFP–synaptopodin) (mouse) (UniProt Q8CC35)
T1 sequence (chain, biotin (biotinylated; co-expressed with HA–BirA)): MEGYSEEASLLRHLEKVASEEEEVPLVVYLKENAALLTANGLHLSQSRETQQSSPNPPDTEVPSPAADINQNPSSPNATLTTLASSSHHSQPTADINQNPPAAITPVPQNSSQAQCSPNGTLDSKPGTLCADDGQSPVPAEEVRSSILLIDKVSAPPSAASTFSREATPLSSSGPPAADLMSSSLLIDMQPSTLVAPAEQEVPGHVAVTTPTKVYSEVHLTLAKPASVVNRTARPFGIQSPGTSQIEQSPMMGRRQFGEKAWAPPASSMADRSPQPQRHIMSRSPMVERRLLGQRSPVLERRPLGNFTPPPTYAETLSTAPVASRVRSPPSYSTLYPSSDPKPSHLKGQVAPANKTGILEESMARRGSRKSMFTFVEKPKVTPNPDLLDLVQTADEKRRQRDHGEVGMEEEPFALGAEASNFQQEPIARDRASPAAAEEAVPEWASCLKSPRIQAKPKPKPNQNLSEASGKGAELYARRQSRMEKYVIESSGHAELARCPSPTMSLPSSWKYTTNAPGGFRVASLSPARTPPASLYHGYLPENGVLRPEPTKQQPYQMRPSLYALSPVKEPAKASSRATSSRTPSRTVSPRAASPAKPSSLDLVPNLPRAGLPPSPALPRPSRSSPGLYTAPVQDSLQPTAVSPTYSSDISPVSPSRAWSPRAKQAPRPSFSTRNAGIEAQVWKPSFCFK
Experiment: affinity purification with mass spectrometry; bio-GFP–synaptopodin (or bio-GFP control) from HEK293T lysate held on Streptavidin Dynabeads, washed (100/500 mM KCl), incubated with 1 ml cleared rat brain lysate for 1 h at 4°C, washed five times (20 mM Tris-HCl pH 8, 150 mM KCl, 0.1% Triton X-100); SDS-PAGE, in-gel digestion, LC-MS/MS; only the target purified

Molecule | binding
B1 | binds
B2 | binds

Molecular target: T1, bio-GFP–synaptopodin (biotinylated GFP–synaptopodin) (mouse)
Experiment: as above
Remark: another data set of the same source

Molecule | binding
gelsolin (Gsn) (endogenous, rat brain) (from UniProt Q68FP1 26-780) | binds
CamKIIα (endogenous, rat brain) (from UniProt P11275 1-478) (enzyme) | binds
actinin (Actn2) (endogenous, rat brain) | binds
myosin Va (endogenous, rat brain) (from UniProt Q9QYF3 1-1828) | binds
coronin Coro2a (endogenous, rat brain) | binds
myosin Id (endogenous, rat brain) (from UniProt Q63357 1-1006) | binds
actinin (Actn4) (endogenous, rat brain) (from UniProt Q9QXQ0 1-911) | binds
F-actin-capping protein Capza2 (endogenous, rat brain) (from UniProt Q3T1K5 1-286) | binds
tropomodulin Tmod3 (endogenous, rat brain) | binds
CamKIIβ (endogenous, rat brain) (from UniProt P08413 1-542) (enzyme) | binds
myosin Vb (endogenous, rat brain) (from UniProt P70569 1-1846) | binds

These are yes or no findings as the source states them, for the method shown. Binding seen in cells or lysates may run through a third protein. These calls come from enrichment with a bait or labelling near it, and not all partners need be listed. Tags and fused reporters may be left off the sequences shown.
